This passage reports binding results from PMC7690829.

Chains of the proteins cited; added tags and fusions are not shown.
UniProt Q9GZV5: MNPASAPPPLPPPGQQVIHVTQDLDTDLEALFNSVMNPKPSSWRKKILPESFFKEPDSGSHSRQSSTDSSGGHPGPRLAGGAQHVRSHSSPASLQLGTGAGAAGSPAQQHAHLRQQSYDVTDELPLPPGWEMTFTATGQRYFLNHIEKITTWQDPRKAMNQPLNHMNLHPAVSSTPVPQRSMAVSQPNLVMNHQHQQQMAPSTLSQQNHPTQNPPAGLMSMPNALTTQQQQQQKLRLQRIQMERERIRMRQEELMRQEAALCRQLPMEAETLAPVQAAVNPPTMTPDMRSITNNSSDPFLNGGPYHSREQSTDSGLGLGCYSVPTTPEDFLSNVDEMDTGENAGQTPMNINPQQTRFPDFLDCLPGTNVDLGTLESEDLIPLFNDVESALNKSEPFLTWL

Experiment [1] addresses T1, HA-USP1 (ubiquitin specific peptidase 1) (UniProt O94782).
T1 sequence: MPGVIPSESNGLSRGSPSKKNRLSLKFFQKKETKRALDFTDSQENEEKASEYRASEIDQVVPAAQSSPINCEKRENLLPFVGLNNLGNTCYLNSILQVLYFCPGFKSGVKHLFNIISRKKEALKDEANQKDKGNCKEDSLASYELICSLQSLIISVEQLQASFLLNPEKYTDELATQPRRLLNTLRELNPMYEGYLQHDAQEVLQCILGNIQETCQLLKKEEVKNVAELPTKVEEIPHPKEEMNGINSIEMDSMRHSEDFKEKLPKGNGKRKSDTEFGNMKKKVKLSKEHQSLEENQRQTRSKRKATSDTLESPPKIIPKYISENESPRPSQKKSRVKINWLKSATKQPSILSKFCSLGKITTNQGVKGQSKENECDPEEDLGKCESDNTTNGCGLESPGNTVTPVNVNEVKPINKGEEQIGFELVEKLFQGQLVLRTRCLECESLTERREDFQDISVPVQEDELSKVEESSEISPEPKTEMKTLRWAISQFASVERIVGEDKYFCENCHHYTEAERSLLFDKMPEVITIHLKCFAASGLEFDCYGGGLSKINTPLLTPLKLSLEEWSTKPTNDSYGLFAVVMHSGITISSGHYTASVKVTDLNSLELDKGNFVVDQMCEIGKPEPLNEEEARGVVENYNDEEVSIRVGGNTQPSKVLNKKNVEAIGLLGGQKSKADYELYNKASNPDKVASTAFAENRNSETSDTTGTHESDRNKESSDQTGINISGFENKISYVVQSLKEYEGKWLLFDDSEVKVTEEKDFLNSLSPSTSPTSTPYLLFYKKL
The experiment in a line: co-IP; Flag-TAZ and HA-USP1 co-transfected in HEK293T; 500 ug lysate in IP buffer (25 mM Tris-HCl, 150 mM NaCl, 1% NP-40, 5% glycerol, pH 7.4) incubated with Flag or HA beads overnight at 4 °C; immunoblot.

The target of experiment [2] is T1, HA-USP1 (ubiquitin specific peptidase 1). The experiment in a line: co-IP; exogenous TAZ or exogenous USP1 precipitated, endogenous USP1 or TAZ detected by immunoblot; IP buffer (25 mM Tris-HCl, 150 mM NaCl, 1% NP-40, 5% glycerol, pH 7.4), beads overnight at 4 °C. Background: Immunoblotting shows a protein as a band on a membrane.

No constants are given. Whether binding was seen depends on the method and setting. In cells and extracts the contact can be indirect. Some results given as binding are weak or reduced against the parent protein; the word gives no strength. Where a sequence is shown, tags or fusion partners need not be part of it.

For the substance “Flag-TAZ (Transcriptional co-activator with PDZ-binding motif) (from UniProt Q9GZV5 1-400)”, the binding result in experiment [1] was “binds”.

Consider “endogenous TAZ (from UniProt Q9GZV5 1-400)”, for which, in experiment [2], the binding entry is recorded as “binds”.
